# Experimental data from PubChem BioAssay AID1508600 (Functional Genomics Laboratory (NCATS/FGL), 2020).
# Out of some 53,000 sequences screened, about 3,700 (7%) were called active.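 How the source made its calls: active means gene knockdowns whose robust z-score for IL-1 alpha signal is at least 2 or at most -2, so actives lie on both sides; inactive means the rest.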 Some of the results follow.
# Assay: Components of the Cytosolic LPS Sensing Pathway: Gene Identification via Genome-wide siRNA Screen;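 further: robust z of the log signal after scaling to non-targeting control siRNA wells of the plate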
# Conditions: RAW264.7 macrophages, IL-1a HTRF, actives lie on both sides, screened at 100 nM (by protocol), cells primed 5 h with Pam3CSK4 first
# Outline: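 Cells (RAW264.7, 1×10^4 per well) were transfected with siRNA at 100 nM and cultured 48h at 37 degrees C. Pam3CSK4 was added for 5 hours; LipidA transfection followed for 24 hour. IL-1a was then measured by HTRF.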
row,Sequence,z-score
1,GCUAAACGAGAGAAAAAGATT against Arhgef10,inactive: 1.54
2,GGGUGUACUGAACUUUGUGTT against Kat2a,inactive: 0.37
3,CGACAGAAACUAGAAACCCTT against Chmp2a,inactive: -1.38
4,GGAUGAUUUGGCCAACACCTT against Atraid,inactive: -0.115
5,GGAGCUCCAUGACAUGUUUTT against Stx3,inactive: -0.37
6,GGCAAAACAACUUUAUUCCTT against Ucp2,inactive: 1.14
7,GGUGGUGGUUGGUAAUGAUTT against Kif4,inactive: -0.747
8,GGACACCAUUGGCUCCUUATT against Tmub1,inactive: 1.63
9,GGACAAAGAUGAAUAUGUGTT against Spag6l,inactive: -0.34
10,GGACUUACUCCACAGCCUATT against Tbp,inactive: -1.73
11,GGUAACUGCUUGCUACAGGTT against Npm3,inactive: -0.25
12,CCAAAAUAAGUGUGGUCAATT against Vstm2l,inactive: -0.623
13,GGAGGGACUUACCACAAGGTT against Timeless,inactive: 0.282
14,GCACCGUGACUCAGAUAGATT against Slco1c1,inactive: -0.191
15,CCAACGGCAUAAAUCCUGATT against Trappc9,inactive: -1.95
16,GGUUAUAGCUUCAAUAGCUTT against Bphl,inactive: -0.61
17,GGUAGAAACGGCUCUAUUATT against Atp6v1b2,inactive: 0.249
18,GCAACUAUGAACAAGAAUCTT against Grm3,inactive: -0.0322
19,GGAUUCCUGCUUUCUUUGCTT against Rnf26,inactive: -0.605
20,GGAGCAGAUGGUCCUGUUATT against Eda,inactive: 0.503
21,CCGGUUAUGUUAAAGGCAATT against Tlk1,inactive: 0.0946
22,GCAAAGUACGCCAAGAUGGTT against Cplx1,inactive: -0.29

row,Sequence,z-score
1,GGUAAUCAAGACCCACAAATT against Shank3,inactive: 0.536
2,GGCAUCUGAAUUCCCUUCUTT against Id2,inactive: 1.94
3,GGUGUUCAGACUACCCUCUTT against Serpina3m,inactive: -1.16
4,CCCUAAAAGACAAAGUGCUTT against Cmtm3,inactive: 0.877
5,CGUCAUCUUAUCAUGUAUUTT against Camk2d,inactive: -0.266
6,CCCUUAUCCUCACGUCAGATT against Spic,inactive: -1.24
7,GCUGAAAAUAUACCAUUCATT against Colec10,inactive: -0.798
8,GGGCAAGAAGGUAGACAUUTT against Hoga1,inactive: 0.278
9,CCUUAUCAAAAAGCUCUCATT against Lats2,inactive: -0.677
10,GGGAAGAUGGAAGACUACGTT against Ramp2,inactive: 0.75
11,GGUUCAAUAAGCACUUGGATT against Atn1,inactive: -0.239
12,CGGGCCUAAACCUCUUAAUTT against Rest,inactive: 0.616
13,GGGUCGUAAUGAGUUCUGGTT against Med1,inactive: 0.83
14,GCAUCAUCCAUACGUCUUATT against Ovgp1,inactive: -0.0273
15,CCACCAUGACUGCAAAUGUTT against Olfr1469,inactive: -0.817
16,CCUUAUCACAUGUAUCCUCTT against Slc9a9,inactive: -1.06
17,GGAGCGAUUUGCUGGUGUGTT against Rps16,inactive: 1.19
18,GGGACUGGCAGAUCUUAUCTT against Gtpbp3,inactive: 0.817
19,CCAAAACCUGAACUCACUATT against Fzd5,inactive: -0.795
20,GGAUUUAAGUGCCCGGUAUTT against Znrf2,inactive: 1.34
21,GGAAAGCUCUCAAUACCUGTT against Olfr633,inactive: -0.688
22,GGUCCACUGGAAAUGCUUUTT against F2rl3,inactive: -0.285

# Retrieved one by one from the entries so far, 4 records:
row,Sequence,z-score
18,GGGACUGGCAGAUCUUAUCTT against Gtpbp3,inactive: 0.817
13,GGGUCGUAAUGAGUUCUGGTT against Med1,inactive: 0.83
21,GGAAAGCUCUCAAUACCUGTT against Olfr633,inactive: -0.688
6,CCCUUAUCCUCACGUCAGATT against Spic,inactive: -1.24

# The list goes on:

row,Sequence,z-score
1,GGAUCAGAUGACACAGACUTT against Stk19,inactive: -1.48
2,GGCAAAAGAACAAGAAACUTT against Orc1,active: -2.09
3,GUUCUAUGGUAGACAUUAUTT against Gm5414,active: -2.35
4,GGACUUUUGGCACUCUUAUTT against Snx10,inactive: 0.127
5,GCGAUUUUACGGAUCCGGUTT against Olfr1420,inactive: 1.13
6,UCUUUGUGAUUUCGAAGCCTT against Slc17a9,active: 2.31
7,GCUAAAAACGACCACAACCTT against Mvd,inactive: -0.459
8,GCCACAUCCUAUGUGAUGATT against Olfr1349,inactive: -0.647
9,GCCUUUCAUGCUCCAACAUTT against Olfr995,inactive: 0.242
10,GGUUUGGAUUGGGUAAAGGTT against Apex1,inactive: -0.416
11,GGCGAGAAGUGUAACAUUCTT against Fjx1,inactive: 1.89
12,GGACCAUGUAUUUUUCUCUTT against B3gnt5,inactive: -0.239
13,GGAUAAGACAAGAAGAGAUTT against Dnah14,inactive: 1.89
14,GGAACGAUAAGCAACUUUGTT against Cwc22,inactive: -0.7
15,CCGUCUAUUAGUGAAGAUGTT against Pex1,inactive: 0.0157
16,GGAAGGUGAGAGCAUUAUGTT against Lrba,inactive: -1.3
17,GGAGUUGAGCAAGACCAAGTT against Ccdc102a,inactive: 0.628
18,GCUUAAGAAUCGAAAAGAGTT against Krcc1,inactive: 0.813
19,GGUUGAUGAAAUUAGAGAGTT against Esco1,inactive: 0.549
20,GGAGAAGGGAACCAAUAAGTT against Vgll1,inactive: -1.42
21,CCUCAUUUCAAGACUGUUATT against Aurka,inactive: -0.831
22,GGUGAGCAAAGAGACAUAUTT against Hivep3,inactive: 0.422

row,Sequence,z-score
1,GGAGACUACCAGAAGGCCUTT against Stip1,inactive: -0.425
2,UGCAUGGACUUACGAAAGATT against Tas2r115,inactive: 0.454
3,GCCCACCUAAACCAACAGUTT against Dap,inactive: 0.989
4,CGAUAUUUAUAUCCACCUATT against Fam81a,inactive: -0.758
5,GGAAGUGUACUUCUACACATT against Gabrq,inactive: 0.637
6,CCAGCUGGAAUUCAUGGUCTT against Olfr1307,inactive: 0.49
7,GGACAACCGAAGUUUUAAUTT against E130308A19Rik,inactive: 0.0435
8,CCACUUACAUGUCAGAUUATT against Slc30a6,inactive: 1.09
9,GGUGUGGGUGGGAAAAGAATT against Eva1b,inactive: 0.521
10,GCAAUGUGACCUUUCUUCUTT against Tm7sf3,inactive: 0.337
11,CCCAAGGUCCAGUUUGAUGTT against Mettl17,active: -2.42
12,CCUAUUUUAACCUUACGUGTT against Bdh1,inactive: -0.443
13,GUUUCUCCAUGGAGUCAUUTT against Psmb5,inactive: -0.742
14,GCCAAUACGACUGAUGAGCTT against Cst10,inactive: -0.694
15,GGGAAGAACUGUGAUUAUUTT against Hspd1,inactive: 0.625
16,GCUCACACAGGGAACAUUGTT against Btnl10,inactive: -0.00185
17,GGGCACACAUAUGACCGUUTT against Rrad,inactive: 0.261
18,GGGAUAAAACAGGUUCAAGTT against Eri2,inactive: -1.43
19,CCAAGAAAGACCGUGUGAATT against Htt,inactive: -0.363
20,GGACAUGAAGACCAAGAUGTT against Cpox,inactive: -1.57
21,GUGUUUCUUGUUGUGUACATT against Olfr1013,inactive: -0.803
22,GGAGAAGGAUGGAGUGUUUTT against Brms1l,inactive: 1.8

# Part of the list above in another layout.
row	Sequence	z-score
5	GGAAGUGUACUUCUACACATT against Gabrq	inactive: 0.637
6	CCAGCUGGAAUUCAUGGUCTT against Olfr1307	inactive: 0.49
7	GGACAACCGAAGUUUUAAUTT against E130308A19Rik	inactive: 0.0435

# Following part.

row,Sequence,z-score
1,GGCUUCUCCAACACUAAGATT against Smtn,inactive: 0.0761
2,GGGAUGGAGAAUCAAGAUATT against Tmem117,inactive: -1.9
3,GCAUUGUGCGAUGAGAAGATT against Fam13a,inactive: -0.388
4,GGUUCCCAAAGUAGAAGCATT against Dkkl1,inactive: -0.231
5,GGAAUAAUUUCUGGAUUCUTT against Maoa,inactive: 0.161
6,GGUAGAAAUCAUUCUCUUUTT against Olfr1037,inactive: 0.598
7,GACAACAAGGUGGCUUCGGTT against Tlx2,inactive: 0.682
8,CCUUUGUAGGAACAAUUUATT against Phlda1,inactive: 0.409
9,GGGCAAAUGACUUGGUGAATT against Maged2,inactive: -0.471
10,GGGAAAUCACUGGACCAGUTT against Zgpat,inactive: 1.1
11,GGUGUGCAACCUGUUGCUCTT against Siglec1,inactive: 0.454
12,GGAAGCCUAUAAUUUAAUCTT against Ttc26,inactive: 0.112
13,CCACCAUGACAAAACGUGUTT against Olfr1459,inactive: 1.03
14,GGAGACUUGCUAAAUGCCCTT against Fkbp7,inactive: -0.0461
15,GGAAGUGAACAAAAUGACUTT against Afp,inactive: 0.288
16,GGCAUUACAGUGUUUCUGCTT against Tgfbr1,inactive: -0.288
17,GGCAGUACCAGGUCCAGAATT against Angpt2,inactive: 0.0599
18,GGCUGAGAAUGCAAGAAUGTT against Krt32,inactive: -0.446
19,GGAGAGUGGGAUGCCUAUUTT against Rsl1,inactive: -0.545
